According to US8846868B2, “Anti-AREG/HB-EGF antibodies and treatment” (Fusion Antibodies Limited, priority 2008, dated 2014):
These are yes or no findings as the source states them, for the method shown. Some binding calls cover weakened binding; strength is not graded here.

B1: 8d7 1f6 2b3 antibody (antibody, V domains shown)
VH: EVQLQQSGAELVRPGALVKLSCKASGFNIKDSYIHWVNQRPEQGLEWIGWIDPENGNTIYDPKFQGKASITADTSSNTAYLQLSSLTSEDTAVYYCVSASYRYGFSYWGQGTLVTVSA
VL: DIVMTQAAPSVPVTPGESVSISCRSNKSLLHTNGNTYLYWFLQRPGQSPQLLIYRMSNLASGVPDRFSGSGSGTAFTLRISRVEAEDVGVYYCMQHLEYPYTFGGGTKLEIKR
B2: 8d7 1f6 2f7 antibody (antibody, V domains shown)
VH: B1 VH
VL: B1 VL

Target: T1, recombinant AREG (human) (UniProt P15514)
T1 sequence: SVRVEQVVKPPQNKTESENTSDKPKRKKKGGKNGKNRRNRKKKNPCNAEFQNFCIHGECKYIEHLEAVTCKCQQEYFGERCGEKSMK
Experiment: ELISA, antibody on coated recombinant protein (HBEGF, AREGfg5, rAREG), FIG. 10

Row | Binder | binding
1 | B1 | binds
2 | B2 | binds
